Assay results taken from paper PMC12663380.
No constants are given. Whether binding was seen depends on the method and setting. In cells and extracts the contact can be indirect. These calls come from enrichment with a bait or labelling near it, and not all partners need be listed.

Sequences of proteins named here, by UniProt entry; tags and fusion partners are left off.
UniProt Q969Q1: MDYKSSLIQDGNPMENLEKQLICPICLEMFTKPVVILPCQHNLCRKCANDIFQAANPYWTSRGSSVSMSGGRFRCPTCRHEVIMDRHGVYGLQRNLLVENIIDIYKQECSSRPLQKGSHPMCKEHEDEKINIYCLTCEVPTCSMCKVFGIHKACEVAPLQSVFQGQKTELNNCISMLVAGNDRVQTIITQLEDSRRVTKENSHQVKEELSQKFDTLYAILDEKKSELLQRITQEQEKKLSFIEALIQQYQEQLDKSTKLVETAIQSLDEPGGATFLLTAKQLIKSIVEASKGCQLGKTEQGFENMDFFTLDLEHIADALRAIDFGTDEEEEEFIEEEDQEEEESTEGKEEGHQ

Target: TRIM63 (endogenous) (human (endogenous in HEK293T)) (UniProt Q969Q1)
Assay: affinity purification with mass spectrometry; 293T cells with or without EGF (100 ng/mL) for 30 min; IP with an anti-TRIM63 antibody, SDS-PAGE, Coomassie; band at approximately 48 kDa seen upon EGF excised for mass spectrometry (Fig. 4A, B)

binding: binds
B1: IRF-8 (endogenous) (protein, UniProt Q02556 1-426)
chain: MCDRNGGRRLRQWLIEQIDSSMYPGLIWENEEKSMFRIPWKHAGKQDYNQEVDASIFKAWAVFKGKFKEGDKAEPATWKTRLRCALNKSPDFEEVTDRSQLDISEPYKVYRIVPEEEQKCKLGVATAGCVNEVTEMECGRSEIDELIKEPSVDDYMGMIKRSPSPPEACRSQLLPDWWAQQPSTGVPLVTGYTTYDAHHSAFSQMVISFYYGGKLVGQATTTCPEGCRLSLSQPGLPGTKLYGPEGLELVRFPPADAIPSERQRQVTRKLFGHLERGVLLHSSRQGVFVKRLCQGRVFCSGNAVVCKGRPNKLERDEVVQVFDTSQFFRELQQFYNSQGRLPDGRVVLCFGEEFPDMAPLRSKLILVQIEQLYVRQLAEEAGKSCGAGSVMQAPEEPPPDQVFRMFPDICASHQRSFFRENQQITV
